Laboratory results published in paper PMC2766050.
Numbering of substitutions follows the chain as printed. Results are given in words; binding and its absence hold for the method and conditions named. In cells and extracts the contact can be indirect. Some binding calls cover weakened binding; strength is not graded here. Tags and fused reporters may be left off the sequences shown. Each block holds one molecule with its values, some of them ahead of it.

Amino acid sequences for entries named in this document (tags omitted).
UniProt P92208: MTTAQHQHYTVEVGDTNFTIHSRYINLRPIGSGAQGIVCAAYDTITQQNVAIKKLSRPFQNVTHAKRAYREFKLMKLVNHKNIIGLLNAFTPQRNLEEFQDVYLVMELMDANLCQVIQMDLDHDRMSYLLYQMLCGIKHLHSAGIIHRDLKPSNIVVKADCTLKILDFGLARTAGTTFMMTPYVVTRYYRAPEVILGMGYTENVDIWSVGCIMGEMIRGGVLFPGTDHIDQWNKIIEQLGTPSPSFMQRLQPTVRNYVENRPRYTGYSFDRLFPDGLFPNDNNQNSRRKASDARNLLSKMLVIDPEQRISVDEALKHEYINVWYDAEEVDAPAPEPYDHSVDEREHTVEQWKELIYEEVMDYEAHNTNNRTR

Legend:
[1] = target: T1, HA tagged Mkk4^Asp (Drosophila) (UniProt O61444); assay: co-IP; S2 cells co-transfected with expression vectors; lysis in 150 mM NaCl, 50 mM Tris-HCl pH 8.0, 1% Nonidet P-40, 0.5% deoxycholic acid; anti-HA antibody and Protein-A sepharose, 4°C overnight; blot with anti-FLAG M2
T1 sequence: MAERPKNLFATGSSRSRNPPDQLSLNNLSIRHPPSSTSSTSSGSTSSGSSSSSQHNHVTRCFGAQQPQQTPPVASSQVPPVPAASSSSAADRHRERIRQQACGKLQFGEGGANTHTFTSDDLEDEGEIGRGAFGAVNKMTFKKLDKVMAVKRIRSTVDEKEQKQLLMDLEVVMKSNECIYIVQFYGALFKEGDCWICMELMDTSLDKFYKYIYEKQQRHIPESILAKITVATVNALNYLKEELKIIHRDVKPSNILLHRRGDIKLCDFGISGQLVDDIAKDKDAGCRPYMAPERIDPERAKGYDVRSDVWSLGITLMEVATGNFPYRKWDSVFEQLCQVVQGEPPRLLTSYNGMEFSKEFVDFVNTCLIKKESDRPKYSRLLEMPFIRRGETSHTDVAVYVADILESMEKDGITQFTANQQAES

[2] = target: T2, N-terminally HA tagged Mkk4 (Drosophila) (UniProt O61444); assay: as above
T2 sequence: T1 sequence with D277S, D281T

binding [1]: no binding
binding [2]: binds
Molecule: C-terminally FLAG tagged Bsk (from UniProt P92208 1-372) (enzyme)

binding [1]: binds
binding [2]: binds
B1: C-terminally FLAG tagged dTAK1 (enzyme, UniProt Q9V3Q6 1-678)
chain: MATASLDALQAAYVDFSEITLREKVGHGSYGVVCKAVWRDKLVAVKEFFASAEQKDIEKEVKQLSRVKHPNIIALHGISSYQQATYLIMEFAEGGSLHNFLHGKVKPAYSLAHAMSWARQCAEGLAYLHAMTPKPLIHRDVKPLNLLLTNKGRNLKICDFGTVADKSTMMTNNRGSAAWMAPEVFEGSKYTEKCDIFSWAIVLWEVLSRKQPFKGIDNAYTIQWKIYKGERPPLLTTCPKRIEDLMTACWKTVPEDRPSMQYIVGVMHEIVKDYTGADKALEYTFVNQQIVTKESDGTVAAQPDSLSSQEGELSPSSTQLTPTTAANANVNAIAISKTTTSSMTENTSSTSSDITPTNSGQLDNNPLFYMVTNRWDAIPEEESNESRNDSFNLTSSAEATQRLETIRNGMILMACKPMEQLTLDVEANGFDLSPSESSSSSTNAKSDGRERLTVTDTKPVMMTTDLSNNNGGIHAHSNGLLSHANGWQARDEELQEQEHEQEIVNSLDVDVDPDEDENDGTEQSLAEILDPELQPEPPIPNDAESQLIYRDHRHMAKEYLSVDTNLYYAQDFKDKLIVQMDRTEREQKQELLRKMKDKEGLQSLYNNLQQQYASRQLAAGHHPQPHPHPHPNQLQHPHSHPPMHFLQDEGCGLLPGSVCGGSESVEEGWVVIPPHHNA
